{"source": "PubChem BioAssay AID1259308 (NCATS, 2017)", "aim": "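Knock-downs that increase output of a recombinant reporter protein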 (primary screen)", "cells": "human HEK293 embryonic kidney cells stably expressing firefly luciferase (HEK-CMV-Luc2-Hygro)", "reagents": "single siRNA against human genes, 0.8 pmol siRNA per well", "timing": "72 h", "measurement": "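Reporter luminescence and viable-cell signal on separate replicate plates, given as percent of non-targeting control and median/MAD z-scores, plus per-cell luciferase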", "direction": "total luciferase, z-score and total luciferase, % of control: higher = more reporter protein produced", "active means": "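Active when the median/MAD z-score for overall luciferase is greater than 3; a gene was taken forward for validation with new siRNAs if at least two of its three siRNAs passed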", "meaning of the calls": "active = raised luciferase; inactive = no rise", "note": "Here is a random part of about 59,000 deposited reagents. About 1,510 of them (2.6%) count as active. 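Calls use total luciferase alone and ignore viability, so some active siRNAs may act by altering cell number.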 The numbers tell different reagents against one gene apart. Not all columns of the deposit are shown."}
{"gene symbol": "MAPDA", "reagent": 1, "total luciferase, z-score": 1.24, "total luciferase, % of control": 106, "call": "inactive"}
{"gene symbol": "MAPDA", "reagent": 2, "total luciferase, z-score": 0.496, "total luciferase, % of control": 91.8, "call": "inactive"}
{"gene symbol": "MAPDA", "reagent": 3, "total luciferase, z-score": -1.1, "total luciferase, % of control": 59.9, "call": "inactive"}
{"gene symbol": "DPYSL5", "reagent": 1, "total luciferase, z-score": 0.473, "total luciferase, % of control": 91.3, "call": "inactive"}
{"gene symbol": "DPYSL5", "reagent": 2, "total luciferase, z-score": -0.812, "total luciferase, % of control": 65.7, "call": "inactive"}
{"gene symbol": "DPYSL5", "reagent": 3, "total luciferase, z-score": 0.391, "total luciferase, % of control": 89.7, "call": "inactive"}
{"gene symbol": "KIF18B", "reagent": 1, "total luciferase, z-score": 2.49, "total luciferase, % of control": 131, "call": "inactive"}
{"gene symbol": "KIF18B", "reagent": 2, "total luciferase, z-score": -1.47, "total luciferase, % of control": 52.7, "call": "inactive"}
{"gene symbol": "KIF18B", "reagent": 3, "total luciferase, z-score": -0.142, "total luciferase, % of control": 79.1, "call": "inactive"}
{"gene symbol": "HNRNPR", "reagent": 1, "total luciferase, z-score": 0.905, "total luciferase, % of control": 99.9, "call": "inactive"}
{"gene symbol": "HNRNPR", "reagent": 2, "total luciferase, z-score": -0.508, "total luciferase, % of control": 71.8, "call": "inactive"}
{"gene symbol": "HNRNPR", "reagent": 3, "total luciferase, z-score": -0.34, "total luciferase, % of control": 75.1, "call": "inactive"}
{"gene symbol": "ZNF222", "reagent": 1, "total luciferase, z-score": 1.23, "total luciferase, % of control": 106, "call": "inactive"}
{"gene symbol": "ZNF222", "reagent": 2, "total luciferase, z-score": -0.418, "total luciferase, % of control": 73.6, "call": "inactive"}
{"gene symbol": "ZNF222", "reagent": 3, "total luciferase, z-score": 0.58, "total luciferase, % of control": 93.4, "call": "inactive"}
{"gene symbol": "PARP12", "reagent": 1, "total luciferase, z-score": -0.913, "total luciferase, % of control": 63.7, "call": "inactive"}
{"gene symbol": "PARP12", "reagent": 2, "total luciferase, z-score": 0.0394, "total luciferase, % of control": 82.7, "call": "inactive"}
{"gene symbol": "PARP12", "reagent": 3, "total luciferase, z-score": 0.254, "total luciferase, % of control": 86.9, "call": "inactive"}
{"gene symbol": "PRSS54", "reagent": 1, "total luciferase, z-score": -2.53, "total luciferase, % of control": 31.5, "call": "inactive"}
{"gene symbol": "PRSS54", "reagent": 2, "total luciferase, z-score": 0.27, "total luciferase, % of control": 87.3, "call": "inactive"}
{"gene symbol": "PRSS54", "reagent": 3, "total luciferase, z-score": -0.416, "total luciferase, % of control": 73.6, "call": "inactive"}
{"gene symbol": "STK32B", "reagent": 1, "total luciferase, z-score": 0.31, "total luciferase, % of control": 88, "call": "inactive"}
{"gene symbol": "STK32B", "reagent": 2, "total luciferase, z-score": -0.996, "total luciferase, % of control": 62.1, "call": "inactive"}
{"gene symbol": "STK32B", "reagent": 3, "total luciferase, z-score": -1.53, "total luciferase, % of control": 51.4, "call": "inactive"}
{"gene symbol": "NPIPB2", "reagent": 1, "total luciferase, z-score": 2.53, "total luciferase, % of control": 132, "call": "inactive"}
{"gene symbol": "NPIPB2", "reagent": 2, "total luciferase, z-score": -1.05, "total luciferase, % of control": 60.9, "call": "inactive"}
{"gene symbol": "NPIPB2", "reagent": 3, "total luciferase, z-score": -2.06, "total luciferase, % of control": 40.9, "call": "inactive"}
{"gene symbol": "POU6F1", "reagent": 1, "total luciferase, z-score": -0.16, "total luciferase, % of control": 78.7, "call": "inactive"}
{"gene symbol": "POU6F1", "reagent": 2, "total luciferase, z-score": 2.89, "total luciferase, % of control": 139, "call": "inactive"}
{"gene symbol": "POU6F1", "reagent": 3, "total luciferase, z-score": -2.37, "total luciferase, % of control": 34.8, "call": "inactive"}
{"gene symbol": "DPP8", "reagent": 1, "total luciferase, z-score": -0.312, "total luciferase, % of control": 75.7, "call": "inactive"}
{"gene symbol": "DPP8", "reagent": 2, "total luciferase, z-score": -1.04, "total luciferase, % of control": 61.2, "call": "inactive"}
{"gene symbol": "DPP8", "reagent": 3, "total luciferase, z-score": 0.342, "total luciferase, % of control": 88.7, "call": "inactive"}
